Test results: publication PMC5674077
These are yes or no findings as the source states them, for the method shown. In cells and extracts the contact can be indirect. Some binding calls cover weakened binding; strength is not graded here. Sequences can lack the tags named with a protein.

Chains of the proteins cited; added tags and fusions are not shown.
UniProt Q04206: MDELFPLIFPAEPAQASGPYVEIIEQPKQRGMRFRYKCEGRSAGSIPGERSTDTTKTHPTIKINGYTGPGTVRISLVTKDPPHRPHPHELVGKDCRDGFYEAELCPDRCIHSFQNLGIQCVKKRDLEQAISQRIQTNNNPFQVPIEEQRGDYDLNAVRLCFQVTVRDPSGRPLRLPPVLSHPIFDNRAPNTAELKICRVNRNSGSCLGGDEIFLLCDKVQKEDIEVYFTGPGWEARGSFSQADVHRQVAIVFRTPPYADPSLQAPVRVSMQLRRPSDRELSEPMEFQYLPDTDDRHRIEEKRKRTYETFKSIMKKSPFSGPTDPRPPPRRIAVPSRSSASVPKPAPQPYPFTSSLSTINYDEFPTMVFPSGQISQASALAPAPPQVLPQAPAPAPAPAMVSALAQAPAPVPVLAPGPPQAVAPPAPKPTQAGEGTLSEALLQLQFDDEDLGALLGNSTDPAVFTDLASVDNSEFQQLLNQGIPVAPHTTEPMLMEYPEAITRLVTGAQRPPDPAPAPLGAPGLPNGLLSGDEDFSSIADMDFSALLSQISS

T1: NMI (HA- or Myc-tagged, transfected HeLa cells, Fig. 4D-H) (human) (UniProt Q13287)
T1 sequence: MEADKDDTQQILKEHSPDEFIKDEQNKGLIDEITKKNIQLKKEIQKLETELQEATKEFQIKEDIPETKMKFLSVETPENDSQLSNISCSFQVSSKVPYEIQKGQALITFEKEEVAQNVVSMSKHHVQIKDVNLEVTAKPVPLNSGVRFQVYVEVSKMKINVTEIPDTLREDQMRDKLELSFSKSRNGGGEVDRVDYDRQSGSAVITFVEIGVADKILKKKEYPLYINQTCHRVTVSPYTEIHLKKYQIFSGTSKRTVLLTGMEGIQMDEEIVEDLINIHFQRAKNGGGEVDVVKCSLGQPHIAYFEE


Key:
[1] = biological target: T1, NMI (HA- or Myc-tagged, transfected HeLa cells, Fig. 4D-H) (human); test: co-IP; HeLa cells transfected with the indicated plasmids; immunoprecipitated with anti-Myc Ab, immunoblotted with anti-HA Ab
Myc-p65 = Myc-p65 (UniProt Q04206); test: co-IP; 293T cells transfected with Myc-p65 and FLAG-NMI, lysed 24 h after transfection; immunoprecipitated with anti-FLAG or anti-Myc Abs, immunoblotted with anti-Myc or anti-FLAG Abs
HA-p65, Q04206 = test: co-IP; two-step co-IP; HEK293T co-transfected with HA-p65, FLAG-NMI and Myc-IκBα; first IP anti-FLAG, elution with FLAG peptide in lysis buffer with 250 mM NaCl, second IP anti-HA in lysis buffer with 300 mM NaCl; 4 °C; conditions: remark: other sources report otherwise

Row | Binder | binding [1] | also measured
1 | c-Rel (protein, UniProt Q04864 1-619) MASGAYNPYIEIIEQPRQRGMRFRYKCEGRSAGSIPGEHSTDNNRTYPSIQIMNYYGKGKVRITLVTKNDPYKPHPHDLVGKDCRDGYYEAEFGQERRPLFFQNLGIRCVKKKEVKEAIITRIKAGINPFNVPEKQLNDIEDCDLNVVRLCFQVFLPDEHGNLTTALPPVVSNPIYDNRAPNTAELRICRVNKNCGSVRGGDEIFLLCDKVQKDDIEVRFVLNDWEAKGIFSQADVHRQVAIVFKTPPYCKAITEPVTVKMQLRRPSDQEVSESMDFRYLPDEKDTYGNKAKKQKTTLLFQKLCQDHVETGFRHVDQDGLELLTSGDPPTLASQSAGITVNFPERPRPGLLGSIGEGRYFKKEPNLFSHDAVVREMPTGVSSQAESYYPSPGPISSGLSHHASMAPLPSSSWSSVAHPTPRSGNTNPLSSFSTRTLPSNSQGIPPFLRIPVGNDLNASNACIYNNADDIVGMEASSMPSADLYGISDPNMLSNCSVNMMTTSSDSMGETDNPRLLSMNLENPSCNSVLDPRDLRQLHQMSSSSMSAGANSNTTVFVSQSDAFEGSDFSCADNSMINESGPSNSTNPNSHGFVQDSQYSGIGSMQNEQLSDSFPYEFFQV | binds | –
2 | FLAG-NMI (protein, UniProt Q13287 1-307) MEADKDDTQQILKEHSPDEFIKDEQNKGLIDEITKKNIQLKKEIQKLETELQEATKEFQIKEDIPETKMKFLSVETPENDSQLSNISCSFQVSSKVPYEIQKGQALITFEKEEVAQNVVSMSKHHVQIKDVNLEVTAKPVPLNSGVRFQVYVEVSKMKINVTEIPDTLREDQMRDKLELSFSKSRNGGGEVDRVDYDRQSGSAVITFVEIGVADKILKKKEYPLYINQTCHRVTVSPYTEIHLKKYQIFSGTSKRTVLLTGMEGIQMDEEIVEDLINIHFQRAKNGGGEVDVVKCSLGQPHIAYFEE | – | binding (Myc-p65): binds
3 | Myc-IκBα, P25963 1-317 (protein) MFQAAERPQEWAMEGPRDGLKKERLLDDRHDSGLDSMKDEEYEQMVKELQEIRLEPQEVPRGSEPWKQQLTEDGDSFLHLAIIHEEKALTMEVIRQVKGDLAFLNFQNNLQQTPLHLAVITNQPEIAEALLGAGCDPELRDFRGNTPLHLACEQGCLASVGVLTQSCTTPHLHSILKATNYNGHTCLHLASIHGYLGIVELLVSLGADVNAQEPCNGRTALHLAVDLQNPDLVSLLLKCGADVNRVTYQGYSPYQLTWGRPSTRIQQQLGQLTLENLQMLPESEDEESYDTESEFTEFTEDELPYDDCVFGGQRLTL | – | binding (HA-p65, Q04206): binds
4 | p100/52 (protein, UniProt Q00653-1 1-900) MESCYNPGLDGIIEYDDFKLNSSIVEPKEPAPETADGPYLVIVEQPKQRGFRFRYGCEGPSHGGLPGASSEKGRKTYPTVKICNYEGPAKIEVDLVTHSDPPRAHAHSLVGKQCSELGICAVSVGPKDMTAQFNNLGVLHVTKKNMMGTMIQKLQRQRLRSRPQGLTEAEQRELEQEAKELKKVMDLSIVRLRFSAFLRASDGSFSLPLKPVISQPIHDSKSPGASNLKISRMDKTAGSVRGGDEVYLLCDKVQKDDIEVRFYEDDENGWQAFGDFSPTDVHKQYAIVFRTPPYHKMKIERPVTVFLQLKRKRGGDVSDSKQFTYYPLVEDKEEVQRKRRKALPTFSQPFGGGSHMGGGSGGAAGGYGGAGGGGSLGFFPSSLAYSPYQSGAGPMGCYPGGGGGAQMAATVPSRDSGEEAAEPSAPSRTPQCEPQAPEMLQRAREYNARLFGLAQRSARALLDYGVTADARALLAGQRHLLTAQDENGDTPLHLAIIHGQTSVIEQIVYVIHHAQDLGVVNLTNHLHQTPLHLAVITGQTSVVSFLLRVGADPALLDRHGDSAMHLALRAGAGAPELLRALLQSGAPAVPQLLHMPDFEGLYPVHLAVRARSPECLDLLVDSGAEVEATERQGGRTALHLATEMEELGLVTHLVTKLRANVNARTFAGNTPLHLAAGLGYPTLTRLLLKAGADIHAENEEPLCPLPSPPTSDSDSDSEGPEKDTRSSFRGHTPLDLTCSTKVKTLLLNAAQNTMEPPLTPPSPAGPGLSLGDTALQNLEQLLDGPEAQGSWAELAERLGLRSLVDTYRQTTSPSGSLLRSYELAGGDLAGLLEALSDMGLEEGVRLLRGPETRDKLPSTAEVKEDSAYGSQSVEQEAEKLGPPPEPPGGLCHGHPQPQVH | binds | –
